{"source": "paper PMC7819943", "about": "“Rice protein-binding microarrays: a tool to detect cis-acting elements near promoter regions in rice”", "note": "The list shows a part of the results.", "data": [{"molecular_target": "T1, OsSMF1 (Oryza sativa, UniProt Q6ZLB0 1-436)", "T1 sequence": "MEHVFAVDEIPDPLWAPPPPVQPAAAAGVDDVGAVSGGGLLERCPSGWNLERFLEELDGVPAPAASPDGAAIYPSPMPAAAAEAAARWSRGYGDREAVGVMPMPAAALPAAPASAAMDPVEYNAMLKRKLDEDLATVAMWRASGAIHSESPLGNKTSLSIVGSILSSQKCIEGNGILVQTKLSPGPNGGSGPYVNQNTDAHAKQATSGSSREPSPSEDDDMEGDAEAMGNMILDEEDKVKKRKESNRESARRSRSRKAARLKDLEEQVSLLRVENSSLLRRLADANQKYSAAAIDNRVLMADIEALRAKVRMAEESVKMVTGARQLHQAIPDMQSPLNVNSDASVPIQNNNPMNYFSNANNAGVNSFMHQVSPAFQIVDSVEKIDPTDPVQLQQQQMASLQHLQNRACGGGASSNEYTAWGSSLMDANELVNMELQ", "assay": "protein-binding microarray (RPBM); PBS, 2% BSA, 51.3 ng/ul salmon testes DNA, 50 uM zinc acetate, 200 nM TF, 25 C, 1 h; high values mean tight binding", "settings": "protein: recombinant; tags: N-terminal polyhistidine and DsRed monomer fusion (pET32a); chain copies: 2; label: CyDye5-dUTP incorporated in the synthesized complementary strand; 3' TTTTT single-stranded linker to array surface; dsDNA, one strand shown", "in_short": "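The binding signal is fluorescence intensity per array feature (arbitrary units). Readings came from an Axon 4000B scanner after a washed, 2% BSA-blocked, double-stranded custom Agilent array had been incubated for 1 h at 25 °C with 200 nM protein and 50 µM zinc acetate. The protein was a Ni–NTA-purified transcription factor fused N-terminally to polyhistidine and DsRed, expressed in E. coli BL21-CodonPlus.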", "values": [{"sequence": "TTTTCGCCCTTTACAGTCTTCGTCTTCGCTACTCGGTGGGCGGAGTCACCTAGTGCAG", "binding signal": "19300 fluorescence intensity (a.u.)"}, {"sequence": "GATTCGTTGAATACCGTCATTATTGGTGGGTTATCATCATCGGAGTCACCTAGTGCAG", "binding signal": "3490 fluorescence intensity (a.u.)"}, {"sequence": "CCGTCCGATCGGATCGGACGGTAGAAACGGCACGTGGCTCCGGAGTCACCTAGTGCAG", "binding signal": "5290 fluorescence intensity (a.u.)"}, {"sequence": "TGGCGCCAGCCCTTAAGATTTGGGGAGGAGGGGTGGAACGCGGAGTCACCTAGTGCAG", "binding signal": "3440 fluorescence intensity (a.u.)"}, {"sequence": "GAATGCAAACAATGGTGGTGACTTTATCAGGGATGATAATCGGAGTCACCTAGTGCAG", "binding signal": "4090 fluorescence intensity (a.u.)"}, {"sequence": "TAGTGTTTGTTTTGGGTTGTGCTCAGCTTAGCTCTGGTGTCGGAGTCACCTAGTGCAG", "binding signal": "39800 fluorescence intensity (a.u.)"}, {"sequence": "ACACCATGAACACGTAGGTACATTTGCGTTCTGTATATATCGGAGTCACCTAGTGCAG", "binding signal": "6180 fluorescence intensity (a.u.)"}, {"sequence": "ATGAGATTTTGAGTCATACATTATGACTTAAAATTCAATTCGGAGTCACCTAGTGCAG", "binding signal": "3280 fluorescence intensity (a.u.)"}, {"sequence": "GTTTCATTAAATATAAACATTGGATATATATTGATAATATCGGAGTCACCTAGTGCAG", "binding signal": "3660 fluorescence intensity (a.u.)"}, {"sequence": "TTCGTCAAACATTGTGACCCGGATCACGTGGATCACATCGCGGAGTCACCTAGTGCAG", "binding signal": "4580 fluorescence intensity (a.u.)"}, {"sequence": "CGTAGAGGAATAACAATGGAACGTCATCCCTCTCTGTTCGCGGAGTCACCTAGTGCAG", "binding signal": "4120 fluorescence intensity (a.u.)"}, {"sequence": "TGGCCTTCTATAAAACGTGGCACCTCTCGCTCCTCCTCGCCGGAGTCACCTAGTGCAG", "binding signal": "8820 fluorescence intensity (a.u.)"}, {"sequence": "ATTCAACCACTGTTTTCTCTGCATGAACCTCTGTCACCCTCGGAGTCACCTAGTGCAG", "binding signal": "3210 fluorescence intensity (a.u.)"}, {"sequence": "CCCTAGAAAACGATTTGTGTACAGTGCATGACAGGGACAGCGGAGTCACCTAGTGCAG", "binding signal": "3390 fluorescence intensity (a.u.)"}, {"sequence": "CCCTCGCCACCACATCGACACGCCGAGATCCGCCGTTGCACGGAGTCACCTAGTGCAG", "binding signal": "4090 fluorescence intensity (a.u.)"}, {"sequence": "AAGTAGCGATCTAGTCACGGTATTAGATGCGTCAACTCCACGGAGTCACCTAGTGCAG", "binding signal": "7350 fluorescence intensity (a.u.)"}, {"sequence": "GTGTTGCTGACTGTAAATATAGACGAACTACCCCACACAACGGAGTCACCTAGTGCAG", "binding signal": "3700 fluorescence intensity (a.u.)"}, {"sequence": "CTATGGTAGGTAGGGTTTTCGTGTTGCGAGGTTACAGGGGCGGAGTCACCTAGTGCAG", "binding signal": "3350 fluorescence intensity (a.u.)"}, {"sequence": "AGGGGTGTGATGATGGTGGCGTCAAGTCATCGGCGATGGCCGGAGTCACCTAGTGCAG", "binding signal": "4140 fluorescence intensity (a.u.)"}, {"sequence": "TCACTCACAAGACGCGACGTTACTAACGAATGACCCAAGGCGGAGTCACCTAGTGCAG", "binding signal": "3760 fluorescence intensity (a.u.)"}, {"sequence": "TAGTGGATCTCAGTGCCCACGGCGGCATGCCACGCGCCGGCGGAGTCACCTAGTGCAG", "binding signal": "4640 fluorescence intensity (a.u.)"}, {"sequence": "AAGGTAGTAAGGCTCTTGCTGGTAACTGTCACCAACCAATCGGAGTCACCTAGTGCAG", "binding signal": "3660 fluorescence intensity (a.u.)"}, {"sequence": "TAATTTCGTTAAGTCCATCATCGATTATGGATGTTTCTATCGGAGTCACCTAGTGCAG", "binding signal": "26600 fluorescence intensity (a.u.)"}, {"sequence": "ACATCGGTTATGATGTAGATCATGGCACTATGTTTGTTCACGGAGTCACCTAGTGCAG", "binding signal": "25500 fluorescence intensity (a.u.)"}, {"sequence": "TCTCTTCTCGACGGAGACACGCACTCACTCTCTCTCTCGCCGGAGTCACCTAGTGCAG", "binding signal": "4640 fluorescence intensity (a.u.)"}, {"sequence": "TCATCTGAAACCAATTTCCAAGCCACGTAAGAAGTTGATTCGGAGTCACCTAGTGCAG", "binding signal": "5140 fluorescence intensity (a.u.)"}, {"sequence": "CCTCCCTCACGCCAGAAGTATCCTGATGACACACACGGCGCGGAGTCACCTAGTGCAG", "binding signal": "4470 fluorescence intensity (a.u.)"}, {"sequence": "CCGCCTCGCCGCGTGCCTCTGGAACAATCTGGCGCTGCCGCGGAGTCACCTAGTGCAG", "binding signal": "3700 fluorescence intensity (a.u.)"}, {"sequence": "TAACTATAACGGCACGGTCATGCCGTTGGCAAATCCTGATCGGAGTCACCTAGTGCAG", "binding signal": "3570 fluorescence intensity (a.u.)"}, {"sequence": "ACGAAGAGAAGAAGGAAAAGAGATGGGTGATGACGTGGACCGGAGTCACCTAGTGCAG", "binding signal": "35700 fluorescence intensity (a.u.)"}, {"sequence": "TCGTTCTCCACCGCACCTGATGGTACCGCATCGCCCGACGCGGAGTCACCTAGTGCAG", "binding signal": "6260 fluorescence intensity (a.u.)"}, {"sequence": "GCACATACGTGTGTTTGTGTGTATATGTTGTACATATTTACGGAGTCACCTAGTGCAG", "binding signal": "3410 fluorescence intensity (a.u.)"}, {"sequence": "CCTGTCACATTGAACATTTGAACACCTGCATGAAGTATTACGGAGTCACCTAGTGCAG", "binding signal": "33900 fluorescence intensity (a.u.)"}, {"sequence": "CACGGGACAACTGACCGGCACGGCAGCACACGCCACCATTCGGAGTCACCTAGTGCAG", "binding signal": "3340 fluorescence intensity (a.u.)"}, {"sequence": "GGGCCGCAACACCGTGTCACATCCGATCTCTCCCCTTCCTCGGAGTCACCTAGTGCAG", "binding signal": "3590 fluorescence intensity (a.u.)"}, {"sequence": "TCCTCCTCCTCGTCGTCGTCGGCGGCGGCGGATGGTGGATCGGAGTCACCTAGTGCAG", "binding signal": "3160 fluorescence intensity (a.u.)"}, {"sequence": "TCGCCGACGGGGACCTTGTGGGCGACGTGGAAGGAGTCGGCGGAGTCACCTAGTGCAG", "binding signal": "3340 fluorescence intensity (a.u.)"}, {"sequence": "GCTCCTGTGGATGTAACGCCGCAGCTCTCTTGTGTACCACCGGAGTCACCTAGTGCAG", "binding signal": "3310 fluorescence intensity (a.u.)"}, {"sequence": "TGCGCCGGTCGGAACGGGATCCACACGATATGACGTCAGGCGGAGTCACCTAGTGCAG", "binding signal": "12200 fluorescence intensity (a.u.)"}, {"sequence": "TTGGGAACTAATGGAGGGAGTATGACGCAATGTCAAGTCACGGAGTCACCTAGTGCAG", "binding signal": "5490 fluorescence intensity (a.u.)"}, {"sequence": "AATATCTACCTCCCATGCGGCAGTGTGTCTCCGAGTGCTGCGGAGTCACCTAGTGCAG", "binding signal": "3230 fluorescence intensity (a.u.)"}, {"sequence": "GCTCTCCCGCCACTGCTCATGGTGACGACGCCATCGAGGTCGGAGTCACCTAGTGCAG", "binding signal": "3240 fluorescence intensity (a.u.)"}]}]}
